The name of at least one read-out is uncertain.
Experiment: Test example 6: test of blood pressure lowering effect using SHR rats, samples (16)-(30) (Table 9)
Format: in vivo, rat
Settings: oral, mean ± SE, dose mg/kg: 17: 500, 18: 1.5, 19: 3.0, 20, 21, 24, 26, 27, 28, 30: 50, 22, 23: 20, 25, 29: 100

In the case of `N=C(N)NCCC[C@H](N)C(=O)O` [Sample 22, Arginine], the systolic blood pressure (n=5, 2 h after administration) is reported as 149 + 3.5 mmH and the systolic blood pressure (n=5, 4 h after administration) is reported as 159 + 3.0 mmH.

Source: WO2005063245A1, “Composition for lowering blood pressure” (priority 2003, dated 2005)
